Here are results for 8 substances from article doi:10.1101/567099 (bioRxiv, 2019).

By UniProt entry, the sequences of proteins in these tests, tags left out. Where a name states a change or a piece, a line headed by the entry shows the natural chain unless it says otherwise. Chains listed by the source or under a name are the forms on record and can include a tag or linker. Residues count along the entry.
TorsinA K148E (human, residues 51-332) (O14656, form named): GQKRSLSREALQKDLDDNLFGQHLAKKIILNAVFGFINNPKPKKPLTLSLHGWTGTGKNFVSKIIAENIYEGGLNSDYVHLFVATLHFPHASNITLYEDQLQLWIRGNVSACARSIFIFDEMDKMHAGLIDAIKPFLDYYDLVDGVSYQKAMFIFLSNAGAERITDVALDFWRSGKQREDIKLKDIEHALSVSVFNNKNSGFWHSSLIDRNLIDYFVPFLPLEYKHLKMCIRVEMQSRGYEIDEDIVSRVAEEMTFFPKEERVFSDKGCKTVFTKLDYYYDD
TorsinA K184E (human, residues 51-332) (O14656, form named): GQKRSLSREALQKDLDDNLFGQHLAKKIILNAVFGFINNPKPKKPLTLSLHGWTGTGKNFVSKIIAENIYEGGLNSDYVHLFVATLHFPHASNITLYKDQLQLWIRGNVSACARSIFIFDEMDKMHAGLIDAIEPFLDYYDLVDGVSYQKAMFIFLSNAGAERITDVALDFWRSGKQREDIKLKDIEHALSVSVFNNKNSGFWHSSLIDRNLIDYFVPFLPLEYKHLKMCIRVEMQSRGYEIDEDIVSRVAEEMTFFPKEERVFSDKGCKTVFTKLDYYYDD
TorsinA D188Y (human, residues 51-332) (O14656, form named): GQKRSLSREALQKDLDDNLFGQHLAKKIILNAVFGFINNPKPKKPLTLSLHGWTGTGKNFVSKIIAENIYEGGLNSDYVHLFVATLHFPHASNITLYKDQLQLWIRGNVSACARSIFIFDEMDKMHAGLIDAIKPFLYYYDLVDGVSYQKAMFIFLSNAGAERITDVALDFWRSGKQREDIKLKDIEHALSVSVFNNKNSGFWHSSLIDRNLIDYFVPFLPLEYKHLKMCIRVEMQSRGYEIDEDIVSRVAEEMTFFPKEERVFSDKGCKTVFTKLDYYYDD
TorsinA D264A (human, residues 51-332) (O14656, form named): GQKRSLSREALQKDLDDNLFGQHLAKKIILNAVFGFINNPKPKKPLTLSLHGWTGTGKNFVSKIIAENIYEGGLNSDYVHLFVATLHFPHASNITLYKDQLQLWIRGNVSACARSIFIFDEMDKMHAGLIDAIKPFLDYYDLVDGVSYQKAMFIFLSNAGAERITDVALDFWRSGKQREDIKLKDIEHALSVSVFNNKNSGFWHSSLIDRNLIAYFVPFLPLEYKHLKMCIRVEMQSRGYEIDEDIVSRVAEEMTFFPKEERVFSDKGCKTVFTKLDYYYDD
TorsinA G251Y (human, residues 51-332) (O14656, form named): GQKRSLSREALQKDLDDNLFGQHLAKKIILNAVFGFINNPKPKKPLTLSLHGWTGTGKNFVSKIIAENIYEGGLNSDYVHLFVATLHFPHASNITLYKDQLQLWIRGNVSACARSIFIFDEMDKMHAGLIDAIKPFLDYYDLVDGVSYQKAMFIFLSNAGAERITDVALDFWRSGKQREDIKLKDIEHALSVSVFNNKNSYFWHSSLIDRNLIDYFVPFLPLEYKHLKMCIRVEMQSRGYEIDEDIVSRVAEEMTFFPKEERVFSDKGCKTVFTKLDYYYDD
TorsinAΔE (human TorsinA residues 51-332, deletion of glutamate 303) (O14656, form named): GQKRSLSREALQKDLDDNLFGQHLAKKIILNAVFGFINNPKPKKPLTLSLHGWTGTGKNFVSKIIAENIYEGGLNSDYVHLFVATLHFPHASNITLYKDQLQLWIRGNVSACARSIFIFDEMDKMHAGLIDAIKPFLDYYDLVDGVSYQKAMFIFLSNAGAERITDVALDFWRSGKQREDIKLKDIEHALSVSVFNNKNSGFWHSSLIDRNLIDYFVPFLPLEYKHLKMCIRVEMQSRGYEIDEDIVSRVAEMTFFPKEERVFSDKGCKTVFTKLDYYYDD
MBP-TorsinA E171Q (residues 51-332) (O14656, form named): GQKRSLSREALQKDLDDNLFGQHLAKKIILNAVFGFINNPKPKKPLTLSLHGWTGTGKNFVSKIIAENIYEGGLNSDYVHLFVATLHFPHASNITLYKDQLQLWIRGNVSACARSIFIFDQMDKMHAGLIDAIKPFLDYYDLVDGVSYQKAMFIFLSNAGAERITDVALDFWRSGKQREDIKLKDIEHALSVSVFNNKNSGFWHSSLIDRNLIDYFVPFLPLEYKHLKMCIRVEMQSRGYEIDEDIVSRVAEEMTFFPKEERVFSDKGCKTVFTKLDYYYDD
TorsinA D188A (human, residues 51-332) (O14656, form named): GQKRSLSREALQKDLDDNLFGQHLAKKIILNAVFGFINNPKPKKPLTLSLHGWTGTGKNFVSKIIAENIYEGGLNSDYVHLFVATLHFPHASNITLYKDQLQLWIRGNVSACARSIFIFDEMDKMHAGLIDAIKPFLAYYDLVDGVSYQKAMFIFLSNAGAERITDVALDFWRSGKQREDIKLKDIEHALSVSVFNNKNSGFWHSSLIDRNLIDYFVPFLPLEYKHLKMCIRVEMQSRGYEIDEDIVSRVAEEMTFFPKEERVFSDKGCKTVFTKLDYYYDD

What all share (assay): negative-stain electron microscopy
Assay [1] concerns the target TorsinA K148E (human, residues 51-332) (human) (UniProt O14656).
Assay [2] deals with TorsinA K184E (human, residues 51-332) (human) (UniProt O14656).
Assay [3] concerns the target TorsinA D188Y (human, residues 51-332) (human) (UniProt O14656).
The target in assay [4] is TorsinA D264A (human, residues 51-332) (human) (UniProt O14656).
The target in assay [5] is TorsinA G251Y (human, residues 51-332) (human) (UniProt O14656).
Assay [6] concerns the target TorsinAΔE (human TorsinA residues 51-332, deletion of glutamate 303) (human) (UniProt O14656).
Assay [7] addresses MBP-TorsinA E171Q (residues 51-332) (human) (UniProt O14656).
Assay [8] has as its target TorsinA D188A (human, residues 51-332) (human) (UniProt O14656).

No constants are given. Whether binding was seen depends on the method and setting.

On to “TorsinA K148E (human, residues 51-332) (from UniProt O14656 51-332) (domain or fragment)”, for which, in assay [1], the binding result is reported as “no binding”.

“TorsinA K184E (human, residues 51-332) (from UniProt O14656 51-332) (domain or fragment)”: the binding result in assay [2] is on record as “no binding”. Turning to “TorsinA D188Y (human, residues 51-332) (from UniProt O14656 51-332) (domain or fragment)”, the binding result in assay [3] is given as “no binding”. For “TorsinA D264A (human, residues 51-332) (from UniProt O14656 51-332) (domain or fragment)”, in assay [4], the binding entry is on record as “no binding”. On to “TorsinA G251Y (human, residues 51-332) (from UniProt O14656 51-332) (domain or fragment)”, for which the binding entry in assay [5] was “no binding”.

With “TorsinAΔE (human TorsinA residues 51-332, deletion of glutamate 303) (from UniProt O14656 51-332) (domain or fragment)”, in assay [6], the binding result is “no binding”. Take “MBP-TorsinA E171Q (residues 51-332) (from UniProt O14656 51-332) (domain or fragment)”: the binding result in assay [7] is on record as “no binding”.

As for “TorsinA D188A (human, residues 51-332) (from UniProt O14656 51-332) (domain or fragment)”, in assay [8], the binding result is on record as “no binding”.
